Measured values: PubChem BioAssay AID1487 (National Center for Advancing Translational Sciences (NCATS), 2009)
This is one part of the list. Shown are side measurements of this screen, not its main read-out; they come without a call. Most of these compounds were active or inconclusive in the main read-out, so they are no random draw. Potencies come from curve fits of mixed quality, noted in brackets.

Assay: qHTS Assay for Modulators of Lamin A Splicing
Conditions: HeLa LMNA splicing GFP/RFP minigene ratio, 48 h
Source text: NCGC Assay Overview: Hutchinson-Gilford Progeria Syndrome (HGPS) is a pediatric premature aging disease caused by a spontaneous mutation in the lamin A/C (LMNA) gene. The mutation activates a cryptic splice site in the LMNA pre-mRNA which results in production of a pre-lamin A protein that cannot be processed properly. The mutant protein accumulates in the nucleus and negatively affects numerous cellular functions. Correction of the splicing defect in HGPS patient cells using a targeted oligonucleotide (exo11) leads to reversal of the cellular disease phenotypes. To identify small molecule modulators of aberrant LMNA splicing, a homogenous assay was constructed in HeLa cells that used a GFP containing minigene to report on correction of aberrant splicing in lamin A and a RFP (DsRed2) to report on cell viability, uniformity and nonspecific effects on the assay signal. This assay was adapted to laser-scanning microplate cytometry (Acumen, TTP Labtech) where miniaturization of the assay to a 1,536-well plate format was possible. References: Bowen, W. P.; Wylie, P. G. Application of Laser-Scanning Fluorescence Microplate Cytometry in High Content Screening. Assay Drug Dev Technol 2006;4:209-221. Scaffidi P, Misteli T. Reversal of the cellular phenotype in the premature aging disease Hutchinson-Gilford progeria syndrome. Nat.
NCGC Assay Protocol Summary: Reagents/Controls: Stable clones expressing DsRed2 and lamin A-EGFP were generated by Cell and Molecular Technologies in S3 HeLa cells. HeLa cells were prepared for the assay when they were 70-90% confluent. The cells were counted and resuspended in Opti-MEM I (no phenol red; Gibco), 2% FBS, 1% penicillin/ streptomycin (Gibco) at concentration of 120 cells/uL concentration. The suspension was passed through a Falcon basket filter with pore size 40um (Beckton Dickson). Control titrations: column […] 1536-well plate contained a sixteen point titration (1:2 dilutions) in duplicate of ancitabine (Sigma: A8598) beginning at 40 uM final concentration. Column 2 contained a sixteen point titration (1:2 dilutions) of cycloheximide beginning at 1.4 mM final concentration. Column 3 contained ancitabine at 40 uM and column 4 contained was the vehicle control (0.5% DMSO final concentration). Assay Steps: 5 uL of HeLa cells were plated in Aurora LoBase black clear bottom (cyclic-olefin polymer) 1536-well plates at a final density of 600 cells/well. Controls and library compounds were added with a 1536-well pin array using the Kalypsys pin-tool. The plates were then incubated for 48 hrs in a cell-culture incubator (37 °C; 5% CO2, 98% humidity). Following incubation the plates were read on the Acumen Explorer using the 488 nm laser. Data was collected on objects between 10 and 100 um in size. Cell objects were defined by a 15 um width x 10 um depth filter. The ratio of the total object intensity in PMT1 (500-530 nm emission; GFP) over PMT3 (575-640 nm emission; RFP) was calculated for analysis. Keywords: NIH Roadmap, MLSCN, MLI, MLSMR, qHTS, NCGC, lamin A, Progeria, RNA splicing.

[1] = measured here: RFP viability control channel
[2] = measured here: GFP splicing reporter channel

Row | SMILES | AC50 [1] | AC50 [2]
1 | CCc1ccc(Nc2cc(=O)n(C3CCCCC3)c(=O)[nH]2)cc1 | 22.4 µM [rising, single point] | –
2 | COc1ccc(-n2nc3cc(C)c(NC(=S)NC(=O)c4ccccc4C)cc3n2)cc1 | 11.2 µM [falling, partial curve] | 12.6 µM [falling, partial curve]
3 | Cc1ccc(-c2csc(=Nc3cccnc3)n2CCCn2ccnc2)cc1C | 12.6 µM [rising, partial curve] | 7.94 µM [rising, partial curve]
4 | COc1cccc(Cc2nc3ccccc3nc2SCC(=O)NCc2ccc(C)cc2)c1 | 0.631 µM [rising, partial curve] | 1.58 µM [rising, partial curve]
5 | Cc1nn2c(nc(N3CCOCC3)c3ccccc32)c1C=C(C#N)C#N | 22.4 µM [rising, single point] | –
6 | Cn1c(N)c(C(=O)COC(=O)CCCOc2ccc(Cl)cc2Cl)c(=O)n(C)c1=O | 0.0794 µM [rising, full curve, poor fit] | 0.398 µM [rising, full curve]
7 | O=C(COc1ccccc1O)Nc1ccccc1Cl | – | 35.5 µM [rising, single point]
8 | CN1/C(=C\C(=O)C[n+]2cccc(C(N)=O)c2)C(C)(C)c2ccccc21 | 0.0224 µM [falling, full curve, poor fit] | 0.00631 µM [falling, full curve, poor fit]
9 | COc1ccc(C)cc1N/C(N)=N/c1nc(C)cc(C)n1 | – | 25.1 µM [falling, single point]
10 | Cc1ccc(NC(=O)c2ccccc2NC(=O)CCC(=O)O)cc1 | 0.0282 µM [falling, full curve, poor fit] | –
11 | Cc1ccc(P(=O)(CSC(=N)N)c2ccc(C)cc2)cc1 | 0.398 µM [rising, full curve, poor fit] | 2 µM [rising, partial curve, poor fit]
12 | Oc1c(CN2CCc3ccccc3C2)cc(Cl)c2cccnc12 | – | 14.1 µM [falling, single point]
13 | CCOc1ccc(NS(=O)(=O)c2ccc(NC(=S)NC(=O)C(C)C)cc2)cc1 | 35.5 µM [rising, single point] | –
14 | Cn1c(=O)c2c(nc(N/N=C/c3ccc(OC(=O)c4ccco4)cc3)n2Cc2ccccc2)n(C)c1=O | 14.1 µM [rising, partial curve] | 22.4 µM [rising, partial curve]
15 | O=C(N/N=C\c1ccc([N+](=O)[O-])s1)c1cncc(Br)c1 | 11.2 µM [rising, partial curve] | 10 µM [rising, partial curve]

Three structures from above, sorted by molar mass, rising.
Row | SMILES | AC50 [1] | AC50 [2]
10 | Cc1ccc(NC(=O)c2ccccc2NC(=O)CCC(=O)O)cc1 | 0.0282 µM [falling, full curve, poor fit] | –
4 | COc1cccc(Cc2nc3ccccc3nc2SCC(=O)NCc2ccc(C)cc2)c1 | 0.631 µM [rising, partial curve] | 1.58 µM [rising, partial curve]
14 | Cn1c(=O)c2c(nc(N/N=C/c3ccc(OC(=O)c4ccco4)cc3)n2Cc2ccccc2)n(C)c1=O | 14.1 µM [rising, partial curve] | 22.4 µM [rising, partial curve]
